In article PMC3473030:
These are yes or no findings as the source states them, for the method shown. Binding seen in cells or lysates may run through a third protein. Some entries that bind do so weakly or less than the wild type.

Sequences of proteins named here, by UniProt entry; tags and fusion partners are left off.
UniProt P38936: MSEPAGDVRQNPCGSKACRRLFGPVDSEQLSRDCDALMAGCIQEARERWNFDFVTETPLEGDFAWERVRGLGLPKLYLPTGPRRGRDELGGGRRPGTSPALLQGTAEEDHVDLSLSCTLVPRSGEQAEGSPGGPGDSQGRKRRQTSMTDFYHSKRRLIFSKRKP
UniProt P24385: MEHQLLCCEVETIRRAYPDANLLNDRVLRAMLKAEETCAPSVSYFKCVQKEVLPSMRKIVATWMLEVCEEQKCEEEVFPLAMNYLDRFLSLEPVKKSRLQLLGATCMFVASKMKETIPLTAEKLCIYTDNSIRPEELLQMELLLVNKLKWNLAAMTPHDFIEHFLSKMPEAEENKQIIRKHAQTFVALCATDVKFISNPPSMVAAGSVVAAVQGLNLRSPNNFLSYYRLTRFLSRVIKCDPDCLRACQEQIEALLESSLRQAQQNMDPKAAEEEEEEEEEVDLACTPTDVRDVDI

Target: p21 (human (endogenous in A549)) (UniProt P38936)
Assay: co-IP; 200 ug protein from lysates of control or VCO-treated A549 cells (0 to 36 h); immunoprecipitated overnight at 4 C with anti-p21 antibody and protein A agarose; immunoblot with anti-cyclin D1

cyclin D1 (from UniProt P24385 1-295)
binding: binds
